Substitutions are numbered along the chain they refer to. For some of these results: The comparison behind a weaker result is the experiment's own reference, which may not be listed here. For some of these results: Tags and fusion partners may be left off the protein sequences shown. For some of these results: The exact form of at least one protein or probe is not confirmed. For some of these results: A negative result means that nothing was seen under these conditions.
Experiments:
Assay in all cases: EMSA
GST-AB (hAB) (human) = conditions: E. coli tRNA; RNA EMSA: 50 mM HEPES pH 8, 1 mM DTT, 100 mM NaCl, 0.01% BSA, 2% glycerol, 50 ng/uL E. coli tRNA, 0.25 nM RNA, 20 min on ice then 10 min 25 C; recombinant protein; protein details: N-terminal GST; label: 5'-32P
[1] = target: T1, GST-B R13-30K R55K,R59K,R60K,R63K,R67K,R69K,R70K,R72K (human) (UniProt Q15554); conditions: some binding from 80 nM; RNA EMSA: 50 mM HEPES pH 8, 1 mM DTT, 100 mM NaCl, 0.01% BSA, 2% glycerol, 50 ng/uL E. coli tRNA, 0.25 nM RNA, 20 min on ice then 10 min 25 C; recombinant protein; residues 43-86; protein details: N-terminal GST; label: 5'-32P
T1 sequence (looked up): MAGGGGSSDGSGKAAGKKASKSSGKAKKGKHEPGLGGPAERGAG

Chains of the proteins cited; added tags and fusions are not shown. Residues count along the entry.
UniProt Q15554, 43-86 R59A/R60A: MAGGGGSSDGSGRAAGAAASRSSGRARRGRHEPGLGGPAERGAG
UniProt Q15554, 43-86 R59A: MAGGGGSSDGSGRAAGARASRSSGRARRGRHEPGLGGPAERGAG
UniProt Q15554, 43-86 R60A: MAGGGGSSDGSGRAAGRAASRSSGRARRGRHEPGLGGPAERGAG
UniProt Q15554, 43-86 R67A: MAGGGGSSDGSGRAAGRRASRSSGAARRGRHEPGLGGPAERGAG
UniProt Q15554, 43-86 R69A/R70A: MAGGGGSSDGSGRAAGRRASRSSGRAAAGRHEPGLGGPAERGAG
UniProt Q15554, 43-86 R69A: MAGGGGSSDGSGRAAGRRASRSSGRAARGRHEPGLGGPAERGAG
UniProt Q15554, 43-86 R70A: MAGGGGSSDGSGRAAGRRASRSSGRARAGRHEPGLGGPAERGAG
UniProt Q15554, 43-86 R72A: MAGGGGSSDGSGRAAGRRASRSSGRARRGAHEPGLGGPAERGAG

GST-B R13A R55A (human) = target: T2, GST-B R13A R55A (human) (UniProt Q15554); conditions: 80 nM protein, slight reduction; RNA EMSA: 50 mM HEPES pH 8, 1 mM DTT, 100 mM NaCl, 0.01% BSA, 2% glycerol, 50 ng/uL E. coli tRNA, 0.25 nM RNA, 20 min on ice then 10 min 25 C; recombinant protein; residues 43-86; protein details: N-terminal GST; label: 5'-32P
T2 sequence (looked up): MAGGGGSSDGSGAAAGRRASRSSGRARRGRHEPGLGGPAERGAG

[2] = target: T3, GST-B R17/18A R59A,R60A (human) (UniProt Q15554); conditions: 80 nM protein, slight reduction; RNA EMSA: 50 mM HEPES pH 8, 1 mM DTT, 100 mM NaCl, 0.01% BSA, 2% glycerol, 50 ng/uL E. coli tRNA, 0.25 nM RNA, 20 min on ice then 10 min 25 C; recombinant protein; residues 43-86; protein details: N-terminal GST; label: 5'-32P
T3 sequence (looked up): T2 sequence (looked up) with A13R, R17A, R18A

GST-B R17A R59A (human) = target: T4, GST-B R17A R59A (human) (UniProt Q15554); conditions: 80 nM protein, slight reduction; RNA EMSA: 50 mM HEPES pH 8, 1 mM DTT, 100 mM NaCl, 0.01% BSA, 2% glycerol, 50 ng/uL E. coli tRNA, 0.25 nM RNA, 20 min on ice then 10 min 25 C; recombinant protein; residues 43-86; protein details: N-terminal GST; label: 5'-32P
T4 sequence (looked up): T2 sequence (looked up) with A13R, R17A

GST-B R18A R60A (human) = target: T5, GST-B R18A R60A (human) (UniProt Q15554); conditions: 80 nM protein, slight reduction; RNA EMSA: 50 mM HEPES pH 8, 1 mM DTT, 100 mM NaCl, 0.01% BSA, 2% glycerol, 50 ng/uL E. coli tRNA, 0.25 nM RNA, 20 min on ice then 10 min 25 C; recombinant protein; residues 43-86; protein details: N-terminal GST; label: 5'-32P
T5 sequence (looked up): T2 sequence (looked up) with A13R, R18A

GST-B R21A R63A (human) = target: T6, GST-B R21A R63A (human) (UniProt Q15554); conditions: 80 nM protein, slight reduction; RNA EMSA: 50 mM HEPES pH 8, 1 mM DTT, 100 mM NaCl, 0.01% BSA, 2% glycerol, 50 ng/uL E. coli tRNA, 0.25 nM RNA, 20 min on ice then 10 min 25 C; recombinant protein; residues 43-86; protein details: N-terminal GST; label: 5'-32P
T6 sequence (looked up): T2 sequence (looked up) with A13R, R21A

GST-B R25A R67A (human) = target: T7, GST-B R25A R67A (human) (UniProt Q15554); conditions: 80 nM protein, slight reduction; RNA EMSA: 50 mM HEPES pH 8, 1 mM DTT, 100 mM NaCl, 0.01% BSA, 2% glycerol, 50 ng/uL E. coli tRNA, 0.25 nM RNA, 20 min on ice then 10 min 25 C; recombinant protein; residues 43-86; protein details: N-terminal GST; label: 5'-32P
T7 sequence (looked up): T2 sequence (looked up) with A13R, R25A

[3] = target: T8, GST-B R27/28A R69A,R70A (human) (UniProt Q15554); conditions: 80 nM protein, slight reduction; RNA EMSA: 50 mM HEPES pH 8, 1 mM DTT, 100 mM NaCl, 0.01% BSA, 2% glycerol, 50 ng/uL E. coli tRNA, 0.25 nM RNA, 20 min on ice then 10 min 25 C; recombinant protein; residues 43-86; protein details: N-terminal GST; label: 5'-32P
T8 sequence (looked up): T2 sequence (looked up) with A13R, R27A, R28A

GST-B R27A R69A (human) = target: T9, GST-B R27A R69A (human) (UniProt Q15554); conditions: 80 nM protein, slight reduction; RNA EMSA: 50 mM HEPES pH 8, 1 mM DTT, 100 mM NaCl, 0.01% BSA, 2% glycerol, 50 ng/uL E. coli tRNA, 0.25 nM RNA, 20 min on ice then 10 min 25 C; recombinant protein; residues 43-86; protein details: N-terminal GST; label: 5'-32P
T9 sequence (looked up): T2 sequence (looked up) with A13R, R27A

GST-B R28A R70A (human) = target: T10, GST-B R28A R70A (human) (UniProt Q15554); conditions: 80 nM protein, slight reduction; RNA EMSA: 50 mM HEPES pH 8, 1 mM DTT, 100 mM NaCl, 0.01% BSA, 2% glycerol, 50 ng/uL E. coli tRNA, 0.25 nM RNA, 20 min on ice then 10 min 25 C; recombinant protein; residues 43-86; protein details: N-terminal GST; label: 5'-32P
T10 sequence (looked up): T2 sequence (looked up) with A13R, R28A

GST-B R30A R72A (human) = target: T11, GST-B R30A R72A (human) (UniProt Q15554); conditions: 80 nM protein, slight reduction; RNA EMSA: 50 mM HEPES pH 8, 1 mM DTT, 100 mM NaCl, 0.01% BSA, 2% glycerol, 50 ng/uL E. coli tRNA, 0.25 nM RNA, 20 min on ice then 10 min 25 C; recombinant protein; residues 43-86; protein details: N-terminal GST; label: 5'-32P
T11 sequence (looked up): T2 sequence (looked up) with A13R, R30A

GST-mAB (mouse) = conditions: E. coli tRNA; RNA EMSA: 50 mM HEPES pH 8, 1 mM DTT, 100 mM NaCl, 0.01% BSA, 2% glycerol, 50 ng/uL E. coli tRNA, 0.25 nM RNA, 20 min on ice then 10 min 25 C; recombinant protein; protein details: N-terminal GST; label: 5'-32P
GST-A50-66B (human) = conditions: E. coli tRNA; RNA EMSA: 50 mM HEPES pH 8, 1 mM DTT, 100 mM NaCl, 0.01% BSA, 2% glycerol, 50 ng/uL E. coli tRNA, 0.25 nM RNA, 20 min on ice then 10 min 25 C; recombinant protein; protein details: N-terminal GST; label: 5'-32P
GST-AP2EDB (human) = conditions: almost no binding; RNA EMSA: 50 mM HEPES pH 8, 1 mM DTT, 100 mM NaCl, 0.01% BSA, 2% glycerol, 50 ng/uL E. coli tRNA, 0.25 nM RNA, 20 min on ice then 10 min …; recombinant protein; protein details: N-terminal GST; label: 5'-32P

Sequence | binding result (GST-AB (hAB) (human)) | binding result [1] | binding result (GST-B R13A R55A (human)) | binding result [2] | binding result (GST-B R17A R59A (human)) | binding result (GST-B R18A R60A (human)) | binding result (GST-B R21A R63A (human)) | binding result (GST-B R25A R67A (human)) | binding result [3] | binding result (GST-B R27A R69A (human)) | binding result (GST-B R28A R70A (human)) | binding result (GST-B R30A R72A (human)) | binding result (GST-mAB (mouse)) | binding result (GST-A50-66B (human)) | binding result (GST-AP2EDB (human))
UUAGGGUUAGGGUUAGGGUUAGGGUUAGGG [TERRA (UUAGGG)5] | no binding | binds more weakly | binds more weakly | binds more weakly | binds more weakly | binds more weakly | binds more weakly | binds more weakly | binds more weakly | binds more weakly | binds more weakly | binds more weakly | binds |  | 
UUAGGGUUAGGGUUAGGGUUAGGGUUAGGGUUAGGGUUAGGGUUAGGGUUAGGGUUAGGGUUAGGGUUAGGG [TERRA (UUAGGG)12] | no binding |  |  |  |  |  |  |  |  |  |  |  |  | no binding | binds more weakly

Source: article PMC9500956, “In Vitro Characterization of the Physical Interactions between the Long Noncoding RNA TERRA and the Telomeric Proteins TRF1 and TRF2”
